In all, about 330,000 compounds went through this assay and about 20 (0.006%) were called active. Inconclusive means that the source gave no clear call. Such entries were picked first, then a sample of the others. Calls come from the whole dose curve; as a rule, active = well fitted inhibition curve with a large enough effect; inconclusive = small, poorly fitted or top-dose-only effect, or effect the other way; inactive = flat fitted curve, though single readings scatter. Where the call is inconclusive, the potency comes from a doubtful curve fit.
Target: Protein phosphatase EYA2 (Homo sapiens) (UniProt O00167)
Assay: qHTS Assay for Inhibitors of the Phosphatase Activity of Eya2
Conditions: recombinant Eya2, OMFP fluorescence dephosphorylation (OMFP is methylfluorescein phosphate); activity, negative = inhibition: at 76.9 µM (top of the series) unless noted
Method in brief: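 Eya2 protein (added as 0.2 uM solution) was preincubated with compound for 10 min at ambient temperature in 50 mM HEPES pH 7.5, 50 mM NaCl, 5 uM MgCl2, 0.05% BSA, 1 mM DTT. OMFP (added at 50 uM) then reacted 10 min; fluorescence read at 485/525 nm.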
% is set by controls: 0 for no effect and ±100 for the full control effect; potency is the fitted concentration of half-maximal effect.

Amino acid sequences for entries named in this document (tags omitted). A change or cut given only in a name is not applied to a line headed by its entry.
UniProt O00167: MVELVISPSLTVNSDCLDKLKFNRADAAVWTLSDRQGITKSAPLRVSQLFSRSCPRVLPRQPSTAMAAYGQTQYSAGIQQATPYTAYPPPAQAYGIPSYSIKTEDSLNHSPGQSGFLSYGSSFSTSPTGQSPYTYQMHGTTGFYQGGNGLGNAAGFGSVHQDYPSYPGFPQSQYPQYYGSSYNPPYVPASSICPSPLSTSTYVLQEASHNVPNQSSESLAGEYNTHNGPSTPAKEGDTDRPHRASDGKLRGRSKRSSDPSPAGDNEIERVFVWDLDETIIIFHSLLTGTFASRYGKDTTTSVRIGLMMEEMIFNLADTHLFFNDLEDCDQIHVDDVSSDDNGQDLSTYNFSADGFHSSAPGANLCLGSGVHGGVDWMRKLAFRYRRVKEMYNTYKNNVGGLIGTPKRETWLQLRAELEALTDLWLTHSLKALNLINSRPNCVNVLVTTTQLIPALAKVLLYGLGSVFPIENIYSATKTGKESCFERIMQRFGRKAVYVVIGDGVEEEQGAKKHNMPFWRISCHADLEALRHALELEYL

| Structure (SMILES) | Potency | activity, negative = inhibition |
| --- | --- | --- |
| COc1cc(C(=O)N/N=C/c2ccsc2C)cc(OC)c1OC | inconclusive: 100 µM [inhibitor, partial curve, poor fit] | – |
| Cc1cnc(NC(=O)[C@H](C)N2C(=O)C3CCCCC3C2=O)s1 (stereo not given in full) | inconclusive: 22.4 µM [inhibitor, partial curve, poor fit] | – |
| CCCCC(=O)N/N=C(\C)CC(=O)Nc1cc(Cl)ccc1OC | inconclusive: 22.4 µM [inhibitor, single point] | – |
| Cn1cnc(S(=O)(=O)N2CCN(c3cccc(C(F)(F)F)c3)CC2)c1 | inconclusive: 12.6 µM [inhibitor, single point] | – |
| O=C(Nc1ccccc1)C(=O)Nc1ccccn1 | inactive | – |
| CC(C)(C)C1=CC(=Nc2ccccc2N)C=C(C(C)(C)C)C1=O | inactive | – |
| Cc1ccccc1CN1CCN(CC(=O)NCc2ccccn2)C1=O | inconclusive: 15.8 µM [inhibitor, single point] | – |
| CCOC(=O)/C(=C/C=C1\Sc2ccccc2N1CC)C(C)=O | inconclusive: 50.1 µM [activator, partial curve] | – |
| O=C(COC(=O)CC1CC2CCC1C2)Nc1ccccc1[N+](=O)[O-] (stereo not given) | inactive | – |
| COc1ccc(CNC(=O)c2nn(-c3ccccc3)cc2OC)cc1 | inconclusive: 22.4 µM [inhibitor, single point] | – |
| COc1ccc(N=C2SC(C(N)=O)CC(=O)N2Cc2ccc3c(c2)OCO3)cc1 (stereo not given) | – | inconclusive: -31.4% [inhibitor] |
| CCOC(=O)c1c(C)n(C)c2ccc(OCC(N)=O)cc12 | inconclusive: 89.1 µM [inhibitor, partial curve, poor fit] | – |
| Cc1ccc(-c2cc(C(=O)Nc3cccnc3)[nH]n2)c(O)c1C | inconclusive: 70.8 µM [inhibitor, partial curve, poor fit] | – |
| COc1cc(/C=C2\SC(=Nc3ccc(O)cc3)NC2=O)cc(OC)c1O | inconclusive: 794 µM [inhibitor, partial curve, poor fit] | – |
| COc1cccc(OC)c1C(=O)Nc1ccccc1N1CCCCC1 | inconclusive: 17.8 µM [inhibitor, single point] | – |
| CC(C)CCN(CCC(C)C)C(=O)Cc1c(O)c2ccccc2[nH]c1=O | inconclusive: 158 µM [inhibitor, partial curve, poor fit] | – |
| CCC1(C)CC(=O)N(c2ccc(F)c(Cl)c2)C(=O)C1 | inactive | – |
| CCCCCCC(O)(c1ccc(OC)cc1)C(CN1CCOCC1)c1ccccc1 (stereo not given) | inconclusive: 100 µM [inhibitor, partial curve] | – |
| CC(C)(C)n1nc2c(c1NC(=O)c1ccccc1)CS(=O)(=O)C2 | inactive | – |
| O=C(N/N=C/c1ccc(O)c2ncccc12)c1cccc(Br)c1 | inactive | – |
| Cn1c(=O)c2c(ncn2CC(=O)N2CCOCC2)n(C)c1=O | inactive | – |
| CCN(CC)Cc1c(O)c(Cl)cc2c3c(c(=O)oc12)CCCC3 | inconclusive: 63.1 µM [inhibitor, partial curve] | – |
| O=C(CSc1nc2ccccc2s1)NC1CCCC1 | inconclusive: 28.2 µM [inhibitor, single point] | – |
| O=[N+]([O-])c1ccc(S(=O)(=O)Nc2ncccn2)cc1 | inconclusive: 20 µM [inhibitor, single point] | – |

A second format for 20 compounds above.
Structure (SMILES),Potency,"activity, negative = inhibition"
Cn1cnc(S(=O)(=O)N2CCN(c3cccc(C(F)(F)F)c3)CC2)c1,"inconclusive: 12.6 µM [inhibitor, single point]",–
O=C(Nc1ccccc1)C(=O)Nc1ccccn1,inactive,–
CC(C)(C)C1=CC(=Nc2ccccc2N)C=C(C(C)(C)C)C1=O,inactive,–
Cc1ccccc1CN1CCN(CC(=O)NCc2ccccn2)C1=O,"inconclusive: 15.8 µM [inhibitor, single point]",–
CCOC(=O)/C(=C/C=C1\Sc2ccccc2N1CC)C(C)=O,"inconclusive: 50.1 µM [activator, partial curve]",–
O=C(COC(=O)CC1CC2CCC1C2)Nc1ccccc1[N+](=O)[O-] (stereo not given),inactive,–
COc1ccc(CNC(=O)c2nn(-c3ccccc3)cc2OC)cc1,"inconclusive: 22.4 µM [inhibitor, single point]",–
COc1ccc(N=C2SC(C(N)=O)CC(=O)N2Cc2ccc3c(c2)OCO3)cc1 (stereo not given),–,inconclusive: -31.4% [inhibitor]
CCOC(=O)c1c(C)n(C)c2ccc(OCC(N)=O)cc12,"inconclusive: 89.1 µM [inhibitor, partial curve, poor fit]",–
Cc1ccc(-c2cc(C(=O)Nc3cccnc3)[nH]n2)c(O)c1C,"inconclusive: 70.8 µM [inhibitor, partial curve, poor fit]",–
COc1cc(/C=C2\SC(=Nc3ccc(O)cc3)NC2=O)cc(OC)c1O,"inconclusive: 794 µM [inhibitor, partial curve, poor fit]",–
COc1cccc(OC)c1C(=O)Nc1ccccc1N1CCCCC1,"inconclusive: 17.8 µM [inhibitor, single point]",–
CC(C)CCN(CCC(C)C)C(=O)Cc1c(O)c2ccccc2[nH]c1=O,"inconclusive: 158 µM [inhibitor, partial curve, poor fit]",–
CCC1(C)CC(=O)N(c2ccc(F)c(Cl)c2)C(=O)C1,inactive,–
CCCCCCC(O)(c1ccc(OC)cc1)C(CN1CCOCC1)c1ccccc1 (stereo not given),"inconclusive: 100 µM [inhibitor, partial curve]",–
CC(C)(C)n1nc2c(c1NC(=O)c1ccccc1)CS(=O)(=O)C2,inactive,–
O=C(N/N=C/c1ccc(O)c2ncccc12)c1cccc(Br)c1,inactive,–
Cn1c(=O)c2c(ncn2CC(=O)N2CCOCC2)n(C)c1=O,inactive,–
CCN(CC)Cc1c(O)c(Cl)cc2c3c(c(=O)oc12)CCCC3,"inconclusive: 63.1 µM [inhibitor, partial curve]",–
O=C(CSc1nc2ccccc2s1)NC1CCCC1,"inconclusive: 28.2 µM [inhibitor, single point]",–

Following part:

| Structure (SMILES) | Potency | activity, negative = inhibition |
| --- | --- | --- |
| Cc1ccc(O)c(-c2cc(-c3ccc(F)cc3)no2)c1 | inactive | – |
| CC(C)c1nn2c(=O)cc(CSc3ccccc3NC(=O)c3ccccc3F)nc2s1 | inconclusive: 31.6 µM [inhibitor, single point] | – |
| CCOC(=O)CS(=O)(=O)c1nc(-c2ccccc2)cc(C(F)(F)F)n1 | inactive | – |
| Cc1ccc(NC(=O)NC2CCN(S(=O)(=O)c3ccc(F)cc3)CC2)cc1 | inactive | – |
| Cc1csc(NC(=O)CCc2c(C)nc3cc(-c4cccc(F)c4)nn3c2C)n1 | inactive | – |
| Cc1ccc(NC(=O)CN2C(=O)N/C(=C/c3cc(C)n(-c4cccc(C(=O)O)c4)c3C)C2=O)cc1 | inactive | – |
| CCNC(=O)/C(=C\c1ccc2c(c1)OCO2)NC(=O)c1ccc(Br)cc1 | inconclusive: 126 µM [inhibitor, partial curve, poor fit] | – |
| CCOc1ccc(/C=C/[N+](=O)[O-])c2ccccc12 | inconclusive: 70.8 µM [inhibitor, partial curve, poor fit] | – |
| CN(C)c1ccc(/C=C/c2c([N+](=O)[O-])c(=O)n(C)c(=O)n2C)cc1 | inconclusive: 100 µM [inhibitor, single point] | – |
| COc1ccc(Cl)cc1NC(=O)C1CCN(C(=O)C2CC(=O)N(c3ccc(C)cc3)C2)CC1 (stereo not given) | inactive | – |
| O=C(CNS(=O)(=O)c1ccccc1)OCC(=O)c1ccc(F)cc1 | inconclusive: 158 µM [inhibitor, partial curve] | – |
| Cc1nnc(NC(=O)CSCc2cc(=O)c3ccccc3[nH]2)s1 | inactive | – |
| Cc1cc(NC(=O)c2cc(-c3ccccn3)nc3ccccc23)no1 | – | inactive: -0.359% [at 15.4 µM] |
| C/C(=N\n1c(C)nc2ccccc2c1=O)c1ccc(C)o1 | inconclusive: 112 µM [inhibitor, single point] | – |
| O=C(Nc1sc2c(c1C(=O)O)CCCC2)c1ccc(Cl)cc1 | inconclusive: 20 µM [inhibitor, single point] | – |
| COc1ccc(CCNc2ccc([N+](=O)[O-])cn2)cc1 | inactive | – |
| COc1ccc(NC(=O)COC(=O)c2ccc(C)c(S(=O)(=O)N3CCCCC3)c2)cc1 | inconclusive: 31.6 µM [inhibitor, partial curve] | – |
| COc1ccc2c(c1)OC1=C(C(=O)CCC1)C2C1=C(O)CCCC1=O (stereo not given) | inconclusive: 79.4 µM [inhibitor, single point] | – |
| Cc1onc(C(=O)NN)c1-c1csc(COc2ccc(Cl)cc2)n1 | inconclusive: 501 µM [inhibitor, partial curve, poor fit] | – |
| COc1ccc(-n2c(=S)[nH]c3cc(C(=O)NCCCN4CCCC4=O)ccc3c2=O)cc1 | inconclusive: 20 µM [inhibitor, single point] | – |
| O=C(Cc1ccc([N+](=O)[O-])cc1)N1N=C2CCCCC2C1(O)C(F)(F)F (stereo not given) | inconclusive: 15.8 µM [inhibitor, single point] | – |
| COc1ccccc1NS(=O)(=O)c1cc(NC(=O)c2cc(=O)[nH]c3ccccc23)ccc1N1CCOCC1 | inconclusive: 22.4 µM [inhibitor, single point] | – |
| CC(=O)Nc1ccc(-c2ccccc2)s1 | inconclusive: 25.1 µM [inhibitor, single point] | – |
| O=[N+]([O-])c1cccc(/C=C/c2nc[nH]c2[N+](=O)[O-])c1 | inconclusive: 251 µM [inhibitor, single point] | – |

| Structure (SMILES) | Potency | activity, negative = inhibition |
| --- | --- | --- |
| CC(=O)c1ccc(S(=O)(=O)NCCC(=O)NC(C)c2ccncc2)cc1 (stereo not given) | inconclusive: 100 µM [inhibitor, single point] | – |
| CCOC(=O)C1(Cc2ccc(OC)cc2)CCN(C(=O)Cc2cccnc2)CC1 | inconclusive: 20 µM [inhibitor, single point] | – |
| CCOc1nc(Nc2ccc(OC)cc2)nc(OCC)n1 | inconclusive: 12.6 µM [inhibitor, single point] | – |
| COc1ccc2[nH]c3c(=O)n(CCCN4CCOCC4)cnc3c2c1 | inactive | – |
| CCOCc1cc(CN2CCC(CCC(=O)NC3CC3)CC2)ccc1OC | inconclusive: 22.4 µM [inhibitor, single point] | – |
| Cc1cc2nc(-c3cccnc3SCC(=O)NCc3ccco3)[nH]c2cc1C | inactive | – |
| CCCCc1c(C)nc2ccc(C)cc2c1SCCC(=O)O | inconclusive: 25.1 µM [inhibitor, single point] | – |
| COc1cccc(CNC(=O)Cn2nc(C)c([N+](=O)[O-])c2C)c1 | inconclusive: 20 µM [inhibitor, single point] | – |
| CCOP(=O)(OCC)/C(C#N)=C/c1cc(OC)ccc1OC | inactive | – |
| Clc1nc(Cl)nc(N(c2ccccc2)c2ccccc2)n1 | inactive | – |
| Cc1cc2c(c(SCC(=O)Nc3ccc(C)c(C)c3)n1)C(=O)OC2 | inconclusive: 31.6 µM [inhibitor, single point] | – |
| CNC(=O)c1[nH]cnc1C(=O)N[C@@H](C)C(=O)OCc1ccccc1 | inactive | – |
| Nc1cccc2c1C(=O)N(C(=O)/C=C/c1cccc(Br)c1)C2=O | inconclusive: 178 µM [inhibitor, single point] | – |
| CN(C)CCN1CC(O)=C(c2nc3ccccc3s2)C1=N | inconclusive: 89.1 µM [inhibitor, single point] | – |
| CC(C)OCCCn1c(=NC(=O)c2cccs2)c(C#N)cc2c(=O)n3ccccc3nc21 | inconclusive: 50.1 µM [inhibitor, partial curve, poor fit] | – |
| Cc1ccc(C)c(Cn2nnc3c(=O)[nH]c(C4CCCN(C(=O)c5cccs5)C4)nc32)c1 (stereo not given) | inconclusive: 100 µM [inhibitor, single point] | – |
| CCN(Cc1ccccc1)C(=O)c1c[nH]c2ccc(S(=O)(=O)N(C)CCC#N)cc2c1=O | inactive | – |
| COc1ccc(C)cc1S(=O)(=O)N1CCN(C(=O)c2ncoc2-c2cccc(C)c2)CC1 | inconclusive: 20 µM [inhibitor, single point] | – |
| CCN1CCN(CCCOc2ccc(-c3ccccc3)cc2)CC1 | inactive | – |
| OC[C@H]1OC(O)[C@H](O)[C@@H](O)[C@H]1O (stereo not given in full) | inactive | – |
| Cc1ccc(-c2cc(C(=O)Nc3ccc(S(=O)(=O)N4CC(C)OC(C)C4)cc3)[nH]n2)c(O)c1 (stereo not given) | inconclusive: 100 µM [inhibitor, single point] | – |
| Cc1ccc(N(Cc2cc3cc(C)ccc3[nH]c2=O)S(=O)(=O)c2ccccc2)cc1 | inactive | – |

2 entries from above, set out differently:
Structure (SMILES)	Potency	activity, negative = inhibition
CCOc1nc(Nc2ccc(OC)cc2)nc(OCC)n1	inconclusive: 12.6 µM [inhibitor, single point]	–
CCCCc1c(C)nc2ccc(C)cc2c1SCCC(=O)O	inconclusive: 25.1 µM [inhibitor, single point]	–
